These are yes or no findings as the source states them, for the method shown. In cells and extracts the contact can be indirect. Some entries that bind do so weakly or less than the wild type. Tags and fused reporters may be left off the sequences shown.

Amino acid sequences for entries named in this document (tags omitted).
UniProt P06733: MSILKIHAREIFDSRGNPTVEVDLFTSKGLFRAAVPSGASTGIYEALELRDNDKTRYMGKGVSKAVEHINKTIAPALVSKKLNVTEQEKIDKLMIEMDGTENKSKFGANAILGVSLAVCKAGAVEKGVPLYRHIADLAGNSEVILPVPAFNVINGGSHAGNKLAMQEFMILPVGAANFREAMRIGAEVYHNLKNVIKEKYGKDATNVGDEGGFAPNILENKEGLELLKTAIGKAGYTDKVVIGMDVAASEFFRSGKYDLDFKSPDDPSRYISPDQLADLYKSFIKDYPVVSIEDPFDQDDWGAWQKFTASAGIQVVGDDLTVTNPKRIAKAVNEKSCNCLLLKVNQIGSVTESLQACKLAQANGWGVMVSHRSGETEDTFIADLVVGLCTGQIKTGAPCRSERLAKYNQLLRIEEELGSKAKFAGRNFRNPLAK

The experiment has as its target T1, recombinant human GST-WBP2 protein (WW domain-binding protein 2) (human) (UniProt Q969T9).
T1 sequence: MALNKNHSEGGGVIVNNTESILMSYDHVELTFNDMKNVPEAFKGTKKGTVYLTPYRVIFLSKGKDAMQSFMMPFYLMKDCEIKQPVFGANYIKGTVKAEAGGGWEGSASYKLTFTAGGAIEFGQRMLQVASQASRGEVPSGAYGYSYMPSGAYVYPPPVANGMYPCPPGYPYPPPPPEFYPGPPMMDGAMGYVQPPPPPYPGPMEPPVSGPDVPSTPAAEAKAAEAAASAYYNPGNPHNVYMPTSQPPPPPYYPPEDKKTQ
Kind of experiment: pull-down; purified L-glutathione-sepharose-immobilized GST-WBP2 incubated with lysates of U251 cells overexpressing ENO1 or Homer3; SDS-PAGE and blot with specific primary antibody; only the target purified.

Regarding “exogenous ENO1 (α-enolase) transfected in U251 cells (from UniProt P06733 1-434) (enzyme)”, the binding entry is “binds”.

B1: exogenous Homer3 (Homer protein homolog 3) transfected in U251 cells (protein, UniProt Q9NSC5 1-361)
chain: MSTAREQPIFSTRAHVFQIDPATKRNWIPAGKHALTVSYFYDATRNVYRIISIGGAKAIINSTVTPNMTFTKTSQKFGQWADSRANTVYGLGFASEQHLTQFAEKFQEVKEAARLAREKSQDGGELTSPALGLASHQVPPSPLVSANGPGEEKLFRSQSADAPGPTERERLKKMLSEGSVGEVQWEAEFFALQDSNNKLAGALREANAAAAQWRQQLEAQRAEAERLRQRVAELEAQAASEVTPTGEKEGLGQGQSLEQLEALVQTKDQEIQTLKSQTGGPREALEAAEREETQQKVQDLETRNAELEHQLRAMERSLEEARAERERARAEVGRAAQLLDVSLFELSELREGLARLAEAAP
For B1, the binding result is listed as “binds”.
